{"source": "paper PMC9929470", "key": {"[1]": {"target": "recombinant NanB (neuraminidase B of Streptococcus pneumoniae TIGR4) (Streptococcus pneumoniae TIGR4) (UniProt Q54727)", "assay": "SEC-MALS; AdvanceBio SEC 300-Å column connected to a DAWN8 detector, 0.3 ml/min, PBS pH 7.2; both purified"}, "[2]": {"target": "recombinant NanB (neuraminidase B of Streptococcus pneumoniae TIGR4) (Streptococcus pneumoniae TIGR4) (UniProt Q54727)", "assay": "SEC; AdvanceBio SEC 300-Å column, 1 ml/min, PBS pH 7.2 as mobile phase; elution of protein and of enzymatic activity compared with molecular weight standards; both purified"}}, "note": "These are yes or no findings as the source states them, for the method shown."}
{"binder": "recombinant NanB (neuraminidase B of Streptococcus pneumoniae TIGR4) (enzyme, UniProt Q54727 30-697) NELNYGQLSISPIFQGGSYQLNNKSIDISSLLLDKLSGESQTVVMKFKADKPNSLQALFGLSNSKAGFKNNYFSIFMRDSGEIGVEIRDAQKGINYLFSRPASLWGKHKGQAVENTLVFVSDSKDKTYTMYVNGIEVFSETVDTFLPISNINGIDKATLGAVNREGKEHYLAKGSIDEISLFNKAISDQEVSTIPLSNPFQLIFQSGDSTQANYFRIPTLYTLSSGRVLSSIDARYGGTHDSKSKINIATSYSDDNGKTWSEPIFAMKFNDYEEQLVYWPRDNKLKNSQISGSASFIDSSIVEDKKSGKTILLADVMPAGIGNNNANKADSGFKEINGHYYLKLKKNGDNDFRYTVRENGVVYNETTNKPTNYTINDKYEVLEGGKSLTVEQYSVDFDSGSLRERHNGKQVPMNVFYKDSLFKVTPTNYIAMTTSQNRGESWEQFKLLPPFLGEKHNGTYLCPGQGLALKSSNRLIFATYTSGELTYLISDDSGQTWKKSSASIPFKNATAEAQMVELRDGVIRTFFRTTTGKIAYMTSRDSGETWSKVSYIDGIQQTSYGTQVSAIKYSQLIDGKEAVILSTPNSRSGRKGGQLVVGLVNKEDDSIDWKYHYDIDLPSYGYAYSAITELPNHHIGVLFEKYDSWSRNELHLSNVVQYIDLEINDLTK", "values": [{"measurement": "binding", "setting": "[1]", "value": "no binding"}, {"measurement": "binding", "setting": "[2]", "value": "no binding"}]}
